From PMC7666153, “The phosphorylated regulator of chemotaxis is crucial throughout biofilm biogenesis in Shewanella oneidensis” (NPJ Biofilms and Microbiomes, 2020)
Results are given in words; binding and its absence hold for the method and conditions named. For some of these results: Binding can be weak; no strength is given.

The chains behind the UniProt entries cited, without tags or fusion partners. Where a name states a change or a piece, a line headed by the entry shows the natural chain unless it says otherwise.
UniProt Q8ECD4: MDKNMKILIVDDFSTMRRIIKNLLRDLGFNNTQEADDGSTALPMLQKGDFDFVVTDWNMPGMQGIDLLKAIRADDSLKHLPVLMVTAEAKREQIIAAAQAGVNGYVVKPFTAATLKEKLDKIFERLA

Assays:
T25-MxdA (S. oneidensis) = molecular target: T1, T25-MxdA (S. oneidensis) (UniProt Q8E9T3); experiment: two-hybrid
T1 sequence: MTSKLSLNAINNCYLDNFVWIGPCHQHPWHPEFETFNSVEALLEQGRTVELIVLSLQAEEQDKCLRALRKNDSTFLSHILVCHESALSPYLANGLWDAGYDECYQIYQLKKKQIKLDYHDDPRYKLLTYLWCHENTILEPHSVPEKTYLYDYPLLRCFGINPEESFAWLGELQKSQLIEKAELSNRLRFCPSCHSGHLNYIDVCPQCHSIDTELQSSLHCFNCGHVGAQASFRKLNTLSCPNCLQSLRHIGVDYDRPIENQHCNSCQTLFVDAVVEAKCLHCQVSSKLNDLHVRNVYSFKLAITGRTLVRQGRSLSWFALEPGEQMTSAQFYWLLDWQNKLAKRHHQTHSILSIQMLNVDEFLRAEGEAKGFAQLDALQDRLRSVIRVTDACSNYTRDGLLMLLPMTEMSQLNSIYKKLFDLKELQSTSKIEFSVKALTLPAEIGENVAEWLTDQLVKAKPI

[1] = molecular target: His-tagged SO4207S (soluble cytoplasmic domain of SO4207, D388 to N625) (S. oneidensis) (UniProt Q8E9Q9); experiment: cross-linking; Strep-tagged CheY3 (11.8 µM) and His-tagged SO4207S (3.1 µM), together or separately, 5 mM EDC, 1 h at room temperature, 10 mM cacodylate buffer; SDS-PAGE and blot with HisProbe-HRP; both purified
[2] = molecular target: T25-SO4207 (cytoplasmic domain of SO4207, D388 to N625) (S. oneidensis); experiment: two-hybrid
[3] = molecular target: T25-SO4407 (S. oneidensis) (UniProt Q8E979); experiment: two-hybrid

Molecule: T18-CheYVC (from UniProt A0A0H3AMJ9)
- binding (T25-MxdA (S. oneidensis)): binds

Molecule: Strep-tagged CheY3 (from UniProt Q8ECD4)
- binding [1]: binds

B1: T18-MxdA (protein, UniProt Q8E9T3 1-462)
chain: MTSKLSLNAINNCYLDNFVWIGPCHQHPWHPEFETFNSVEALLEQGRTVELIVLSLQAEEQDKCLRALRKNDSTFLSHILVCHESALSPYLANGLWDAGYDECYQIYQLKKKQIKLDYHDDPRYKLLTYLWCHENTILEPHSVPEKTYLYDYPLLRCFGINPEESFAWLGELQKSQLIEKAELSNRLRFCPSCHSGHLNYIDVCPQCHSIDTELQSSLHCFNCGHVGAQASFRKLNTLSCPNCLQSLRHIGVDYDRPIENQHCNSCQTLFVDAVVEAKCLHCQVSSKLNDLHVRNVYSFKLAITGRTLVRQGRSLSWFALEPGEQMTSAQFYWLLDWQNKLAKRHHQTHSILSIQMLNVDEFLRAEGEAKGFAQLDALQDRLRSVIRVTDACSNYTRDGLLMLLPMTEMSQLNSIYKKLFDLKELQSTSKIEFSVKALTLPAEIGENVAEWLTDQLVKAKPI
- binding [2]: no binding
- binding [3]: no binding
